Laboratory results from the supplement of paper PMC12823440, “Inhibitors supercharge kinase turnover through native proteolytic circuits” (Nature, 2025).
Structures can show the parent of a compound that is named as a salt. Some of the results follow. Hit calls seldom repeat between salt and free forms of one compound.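 In K562 cells expressing nanoluciferase-fused kinases, luminescence was recorded at 4 h intervals between 2 and 18 h, normalized as percent of control with DMSO at 100% and a positive control at 0%. A significant (2 sigma) signal drop marks a time point as decreased. The authors' rule for a hit is not shown and takes in more than the number of time points.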

Chains of the proteins cited; added tags and fusions are not shown. Lines headed by an entry give the natural chain unless they say otherwise; changes in a name come on top.
UniProt P42680: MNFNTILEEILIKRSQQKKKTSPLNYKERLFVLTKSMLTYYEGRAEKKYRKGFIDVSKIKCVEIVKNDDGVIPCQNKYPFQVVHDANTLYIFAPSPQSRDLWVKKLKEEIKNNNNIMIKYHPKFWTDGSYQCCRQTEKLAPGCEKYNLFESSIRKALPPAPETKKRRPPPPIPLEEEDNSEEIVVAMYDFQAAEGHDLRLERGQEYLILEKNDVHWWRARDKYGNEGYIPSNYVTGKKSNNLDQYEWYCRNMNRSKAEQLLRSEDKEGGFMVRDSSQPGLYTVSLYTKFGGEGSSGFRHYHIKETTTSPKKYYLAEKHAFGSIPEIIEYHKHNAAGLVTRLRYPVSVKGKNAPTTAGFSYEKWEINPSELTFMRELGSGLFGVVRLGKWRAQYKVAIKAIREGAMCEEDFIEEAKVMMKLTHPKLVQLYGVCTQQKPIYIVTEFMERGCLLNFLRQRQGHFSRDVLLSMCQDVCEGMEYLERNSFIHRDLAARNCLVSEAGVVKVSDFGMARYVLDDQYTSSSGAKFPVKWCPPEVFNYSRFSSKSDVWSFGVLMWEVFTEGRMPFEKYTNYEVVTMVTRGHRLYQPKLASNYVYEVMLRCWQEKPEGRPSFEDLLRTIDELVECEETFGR
UniProt P29597: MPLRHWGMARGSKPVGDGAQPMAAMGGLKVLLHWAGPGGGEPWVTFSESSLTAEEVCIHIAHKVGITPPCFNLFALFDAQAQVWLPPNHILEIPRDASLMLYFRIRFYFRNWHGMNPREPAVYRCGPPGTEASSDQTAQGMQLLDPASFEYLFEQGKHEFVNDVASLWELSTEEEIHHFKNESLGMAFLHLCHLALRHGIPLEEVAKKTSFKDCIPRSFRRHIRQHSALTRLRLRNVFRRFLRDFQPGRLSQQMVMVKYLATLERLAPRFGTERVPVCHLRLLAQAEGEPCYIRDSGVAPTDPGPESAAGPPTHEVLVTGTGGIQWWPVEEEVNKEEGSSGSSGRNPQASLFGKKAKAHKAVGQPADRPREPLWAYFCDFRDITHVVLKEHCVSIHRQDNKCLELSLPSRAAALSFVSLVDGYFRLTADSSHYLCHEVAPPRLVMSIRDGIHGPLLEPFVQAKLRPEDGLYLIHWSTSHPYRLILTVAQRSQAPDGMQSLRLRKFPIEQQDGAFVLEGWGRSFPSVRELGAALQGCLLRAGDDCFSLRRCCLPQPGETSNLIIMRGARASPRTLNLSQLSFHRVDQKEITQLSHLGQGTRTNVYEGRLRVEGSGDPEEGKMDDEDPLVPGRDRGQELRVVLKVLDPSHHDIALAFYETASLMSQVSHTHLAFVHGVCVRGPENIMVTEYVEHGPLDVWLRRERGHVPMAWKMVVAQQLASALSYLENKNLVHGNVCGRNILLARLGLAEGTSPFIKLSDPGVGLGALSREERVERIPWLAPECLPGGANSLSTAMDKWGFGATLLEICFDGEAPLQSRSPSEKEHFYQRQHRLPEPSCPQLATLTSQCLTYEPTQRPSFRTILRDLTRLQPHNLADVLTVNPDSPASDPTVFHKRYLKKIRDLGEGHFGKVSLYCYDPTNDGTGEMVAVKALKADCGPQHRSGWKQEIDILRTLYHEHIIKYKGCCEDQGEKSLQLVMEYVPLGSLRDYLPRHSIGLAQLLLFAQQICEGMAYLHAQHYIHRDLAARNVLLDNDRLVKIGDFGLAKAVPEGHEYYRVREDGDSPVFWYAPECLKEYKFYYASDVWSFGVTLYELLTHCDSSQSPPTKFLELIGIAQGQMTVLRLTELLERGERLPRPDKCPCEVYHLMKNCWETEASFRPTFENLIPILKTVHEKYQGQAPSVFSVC

biological target: TEC (UniProt P42680); assay: kinase-Nluc reporter destabilization hit call (1 = scored as downregulated) (binary); higher = compound decreases kinase abundance; conditions: K562; 2-18 h

kinase-Nluc reporter destabilization hit call, inactive:
Oc1cc(O)c2c(c1)OC1(c3ccc(O)c(O)c3)Oc3cc(O)c4c(c3C2C1O)OC(c1ccc(O)c(O)c1)C(O)C4 (stereo unspecified) [Procyanidin A1] (10 µM) 0, c1ccc(-c2nc3c(c(-n4ccc5cnccc54)n2)CCC3)nc1 (10 µM) 0, Cc1cc(C)nc(NS(=O)(=O)c2ccc(NC(=S)NC(=O)COc3ccc(Br)cc3Cl)cc2)n1 (2.5 µM) 0, Cc1ccc(NC(=O)c2ccc(CN(CCN(C)C)C(=O)c3cccnc3)cc2)cc1Nc1nccc(-c2cccnc2)n1 [PDGFRα kinase inhibitor 1] (10 µM) 0, C[C@H](Nc1ncnc2[nH]cnc12)c1cc2ccc(F)cc2nc1-c1ccccn1 (10 µM) 0, CN(C)CCC=C1c2ccccc2CCc2ccccc21 [Amitriptyline (hydrochloride)] (2.5 µM) 0, O=C1/C(=C\c2ccc(Cl)cc2)C=C(c2ccccc2)N1c1ccc(O)cc1 (2.5 µM) 0, C[C@@H]1CCNC(=O)c2cc3ccc(C(=O)Nc4nc5ccccc5n4CCCN(C)C)cc3n21 (10 µM) 0, COc1c(Nc2cc(C)[nH]n2)nc(Sc2ccc(S(=O)(=O)Cc3cccc([N+](=O)[O-])c3F)cc2F)nc1N1CCCCC1 [Centrinone-B] (2.5 µM) 0, COc1ccc(/C=C/C(=O)C2(C(=O)/C=C/c3ccc(OC)c(OC)c3)CCCCC2)cc1OC (2.5 µM) 0, CN(C)c1nc2c(Br)c(Br)c(Br)c(Br)c2[nH]1 (10 µM) 0, O=C(Nc1nc(=O)n(Cc2ccc(Cl)cc2)s1)c1ccc(Cl)cc1 (10 µM) 0, Nc1n[nH]c2nc(-c3ccc(NS(=O)(=O)c4cc(Cl)ccc4F)cc3)cnc12 (10 µM) 0

biological target: TYK2 (UniProt P29597); assay: as above; conditions: K562; 2-18 h

kinase-Nluc reporter destabilization hit call, inactive:
CN1CC[C@@H](c2c(O)cc(O)c3c(=O)cc(-c4ccc(C(F)(F)F)cc4Cl)oc23)[C@@H]1CO [Voruciclib (hydrochloride)] (10 µM) 0, O=c1cc(-c2cccc3c2Sc2ccccc2S3)oc(N2CCOCC2)c1 (10 µM) 0, O=[N+]([O-])c1ccc(Nc2nc(N3CCOCC3)nc(N3CCOCC3)n2)cc1 (10 µM) 0, c1ccc(-c2nc(=NCCN3CCOCC3)sn2-c2ccccc2)cc1 [VP3.15 (dihydrobromide)] (10 µM) 0, Nc1nc(N)c2nc(-c3cccc(O)c3)cnc2n1 (10 µM) 0, Nc1ncnc2c1c(-c1ccc(Oc3ccccc3)cc1)nn2C1CCN(CCOCCOCCOc2ccc3c(c2)CN(C2CCC(=O)NC2=O)C3=O)CC1 (stereo unspecified) (2.5 µM) 0, C=CC(=O)N1C[C@H](COc2nc(Nc3cnn(C)c3)nc3[nH]cc(Cl)c23)[C@@H](OC)C1 (2.5 µM) 0, Cc1nn(C)c2c1C(c1ccc(C(F)(F)F)cc1)C(C#N)=C(N)O2 (stereo unspecified) (10 µM) 0, O=C(NC1CCOCC1)c1ccc(-c2cc(-c3c[nH]nc3-c3ccccn3)ccn2)cc1 (10 µM) 0, CC/C(=N\NC(=O)c1ccnc(NCCCN2CCOCC2)c1)c1ccc(Cl)cc1O (2.5 µM) 0, COc1cc(N2CCOCC2)ccc1Nc1ncc(Cl)c(Nc2ccccc2NS(C)(=O)=O)n1 (2.5 µM) 0, Cn1cnc([N+](=O)[O-])c1C[N+](C)(C)C/C=C/C(=O)Nc1cc2c(Nc3ccc(Cl)c(Br)c3)ncnc2cn1 [Tarloxotinib (bromide)] (10 µM) 0, O=C(Nc1cccc(C(F)(F)F)c1)c1cccc2cc(Oc3cc(CO)ncn3)ccc12 (10 µM) 0, Oc1ccc(/C=C/c2cc(O)cc(O)c2)cc1 [Resveratrol] (10 µM) 0, O=c1[nH]c(C2CCCN2)nc2c1oc1ccc(Cl)cc12 (stereo unspecified) [XL413 (hydrochloride)] (10 µM) 0, CN(c1ccc(NC(=O)Nc2ccc(OC(F)(F)F)cc2)cc1)c1ccnc(Nc2cccc(S(N)(=O)=O)c2)n1 (2.5 µM) 0, C=C[C@@](C)(/C=C/c1ccc(O)cc1)CCC=C(C)C [Bakuchiol] (10 µM) 0, COc1cc2ncnc(-n3nc(-c4ccccn4)nc3N)c2cc1OC (10 µM) 0, CNc1nc(Nc2ccc(C(=O)N3CCOCC3)cc2OC)ncc1Cl (2.5 µM) 0, CC(C)S(=O)(=O)c1ccc2nccc(Nc3ccc4scnc4c3)c2c1 (10 µM) 0, CC(C)(O)[C@H]1CC[C@H](Nc2ccc3ncc(-c4cccc(C(F)(F)F)c4)n3n2)CC1 (10 µM) 0, CCN(CC)c1ccc2cc(-c3nc4cc(C)ccc4o3)c(=O)oc2c1 (10 µM) 0, CN(C)S(=O)(=O)c1ccc2c(c1)/C(=C/c1cc3c([nH]1)CCCC3)C(=O)N2 (2.5 µM) 0, C=CC(=O)Nc1cc(Nc2nccc(-n3cc(CN(C)C)c(-c4ccccc4)n3)n2)c(OC)cc1N1CCOCC1 [Lazertinib] (10 µM) 0, Cc1ccc2c(Nc3cccc(Cl)c3F)nccc2c1NC(=O)c1csc2c(N)ncnc12 [Belvarafenib] (10 µM) 0, Oc1cc(O)c2c(c1)OC1(c3ccc(O)c(O)c3)Oc3cc(O)c4c(c3C2C1O)OC(c1ccc(O)c(O)c1)C(O)C4 (stereo unspecified) [Procyanidin A1] (10 µM) 0, c1ccc(-c2nc3c(c(-n4ccc5cnccc54)n2)CCC3)nc1 (10 µM) 0, Cc1cc(C)nc(NS(=O)(=O)c2ccc(NC(=S)NC(=O)COc3ccc(Br)cc3Cl)cc2)n1 (2.5 µM) 0, Cc1ccc(NC(=O)c2ccc(CN(CCN(C)C)C(=O)c3cccnc3)cc2)cc1Nc1nccc(-c2cccnc2)n1 [PDGFRα kinase inhibitor 1] (10 µM) 0, C[C@H](Nc1ncnc2[nH]cnc12)c1cc2ccc(F)cc2nc1-c1ccccn1 (10 µM) 0, CN(C)CCC=C1c2ccccc2CCc2ccccc21 [Amitriptyline (hydrochloride)] (2.5 µM) 0, O=C1/C(=C\c2ccc(Cl)cc2)C=C(c2ccccc2)N1c1ccc(O)cc1 (2.5 µM) 0, C[C@@H]1CCNC(=O)c2cc3ccc(C(=O)Nc4nc5ccccc5n4CCCN(C)C)cc3n21 (10 µM) 0, COc1c(Nc2cc(C)[nH]n2)nc(Sc2ccc(S(=O)(=O)Cc3cccc([N+](=O)[O-])c3F)cc2F)nc1N1CCCCC1 [Centrinone-B] (2.5 µM) 0, COc1ccc(/C=C/C(=O)C2(C(=O)/C=C/c3ccc(OC)c(OC)c3)CCCCC2)cc1OC (2.5 µM) 0, CN(C)c1nc2c(Br)c(Br)c(Br)c(Br)c2[nH]1 (10 µM) 0, O=C(Nc1nc(=O)n(Cc2ccc(Cl)cc2)s1)c1ccc(Cl)cc1 (10 µM) 0, Nc1n[nH]c2nc(-c3ccc(NS(=O)(=O)c4cc(Cl)ccc4F)cc3)cnc12 (10 µM) 0
